Measurements: publication PMC4219657, “Structural and Mechanistic Basis of Zinc Regulation Across the E. coli Zur Regulon” (PLoS Biology, 2014)
These are yes or no findings as the source states them, for the method shown.

Biological target: E. coli Zur site A mutant C103S (E. coli) (UniProt P0AC51)
Test: SEC; analytical gel filtration of WT Zur, C103S and C88S; elution volume of WT (10.9 ml) as reference; column and buffer not told; both purified

binding: no binding
B1: E. coli Zur site A mutant C103S (protein, UniProt P0AC51 1-171)
chain: MEKTTTQELLAQAEKICAQRNVRLTPQRLEVLRLMSLQDGAISAYDLLDLLREAEPQAKPPTVYRALDFLLEQGFVHKVESTNSYVLCHLFDQPTHTSAMFISDRCGAVKEECAEGVEDIMHTLAAKMGFALRHNVIEAHGLCAACVEVEACRHPEQCQHDHSVQVKKKPR
